Experimental data: PubChem BioAssay AID1259308 (NCATS, 2017)
The whole screen tested about 59,000 reagents; this is a random part of them. About 1,510 of them (2.6%) count as active. 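Calls use total luciferase alone and ignore viability, so some active siRNAs may act by altering cell number.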 Entries without a mark were called inactive. Not all columns of the deposit are shown.

Purpose: 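Knock-downs that increase output of a recombinant reporter protein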 (primary screen)
Cells: human HEK293 embryonic kidney cells stably expressing firefly luciferase (HEK-CMV-Luc2-Hygro)
Knock-down reagent: single siRNA against human genes, 0.8 pmol siRNA per well
Time to read-out: 72 h
Measurement: 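Reporter luminescence and viable-cell signal on separate replicate plates, given as percent of non-targeting control and median/MAD z-scores, plus per-cell luciferase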
Reading the numbers: total luciferase, z-score: higher = more reporter protein produced
Call rule: 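An siRNA counts as active if its total luciferase robust z-score exceeds 3; genes with two or more such siRNAs out of three were retested with fresh siRNAs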
Calls: active = raised luciferase; inactive = no rise

GIPR (gastric inhibitory polypeptide receptor) [SID160730950] | total luciferase, z-score: 0.708
GIPR (gastric inhibitory polypeptide receptor) [SID160770902] | total luciferase, z-score: 0.745
GIPR (gastric inhibitory polypeptide receptor) [SID160770918] | total luciferase, z-score: 1.34
WDR87 (WD repeat domain 87) [SID160751499] | total luciferase, z-score: -1.04
WDR87 (WD repeat domain 87) [SID160751500] | total luciferase, z-score: -0.679
WDR87 (WD repeat domain 87) [SID160751501] | total luciferase, z-score: -1.91
C9orf50 (chromosome 9 open reading frame 50) [SID160733168] | total luciferase, z-score: -0.946
C9orf50 (chromosome 9 open reading frame 50) [SID160765478] | total luciferase, z-score: -0.0354
C9orf50 (chromosome 9 open reading frame 50) [SID160765480] | total luciferase, z-score: 0.581
ASAP2 (ArfGAP with SH3 domain, ankyrin repeat and PH domain 2) [SID160720977] | total luciferase, z-score: 0.589
ASAP2 (ArfGAP with SH3 domain, ankyrin repeat and PH domain 2) [SID160720978] | total luciferase, z-score: -1.74
ASAP2 (ArfGAP with SH3 domain, ankyrin repeat and PH domain 2) [SID160720979] | total luciferase, z-score: 0.932
CAPN1-AS1 (CAPN1 antisense RNA 1) [SID160734439] | total luciferase, z-score: -0.0435
CAPN1-AS1 (CAPN1 antisense RNA 1) [SID160772303] | total luciferase, z-score: -0.75
CAPN1-AS1 (CAPN1 antisense RNA 1) [SID160772304] | total luciferase, z-score: -0.302
GLUL (glutamate-ammonia ligase) [SID160755515] | total luciferase, z-score: -0.0443
GLUL (glutamate-ammonia ligase) [SID160755622] | total luciferase, z-score: 0.369
GLUL (glutamate-ammonia ligase) [SID160755726] | total luciferase, z-score: 4.03 (active)
TRMT112 (tRNA methyltransferase activator subunit 11-2) [SID160740900] | total luciferase, z-score: -1.21
TRMT112 (tRNA methyltransferase activator subunit 11-2) [SID160740901] | total luciferase, z-score: -1.21
TRMT112 (tRNA methyltransferase activator subunit 11-2) [SID160740903] | total luciferase, z-score: -0.72
DENND11 (DENN domain containing 11) [SID160745793] | total luciferase, z-score: -0.223
DENND11 (DENN domain containing 11) [SID160745794] | total luciferase, z-score: -0.749
DENND11 (DENN domain containing 11) [SID160745795] | total luciferase, z-score: 0.199
PRKCG (protein kinase C gamma) [SID160714940] | total luciferase, z-score: 1.14
PRKCG (protein kinase C gamma) [SID160714941] | total luciferase, z-score: -0.685
PRKCG (protein kinase C gamma) [SID160714942] | total luciferase, z-score: 5.31 (active)
MAGEB4 (MAGE family member B4) [SID160776919] | total luciferase, z-score: -0.141
MAGEB4 (MAGE family member B4) [SID160776920] | total luciferase, z-score: 1.59
MAGEB4 (MAGE family member B4) [SID160776921] | total luciferase, z-score: 0.173
HDAC7 (histone deacetylase 7) [SID160741013] | total luciferase, z-score: 0.453
HDAC7 (histone deacetylase 7) [SID160741014] | total luciferase, z-score: -1.36
HDAC7 (histone deacetylase 7) [SID160741015] | total luciferase, z-score: -0.0853

Copied from the listing (3 entries):
ASAP2 (ArfGAP with SH3 domain, ankyrin repeat and PH domain 2) [SID160720978] | total luciferase, z-score: -1.74
ASAP2 (ArfGAP with SH3 domain, ankyrin repeat and PH domain 2) [SID160720979] | total luciferase, z-score: 0.932
CAPN1-AS1 (CAPN1 antisense RNA 1) [SID160734439] | total luciferase, z-score: -0.0435
